The record followed here is publication PMC9385634.

Sequences of proteins named here, by UniProt entry; tags and fusion partners are left off.
UniProt P35222: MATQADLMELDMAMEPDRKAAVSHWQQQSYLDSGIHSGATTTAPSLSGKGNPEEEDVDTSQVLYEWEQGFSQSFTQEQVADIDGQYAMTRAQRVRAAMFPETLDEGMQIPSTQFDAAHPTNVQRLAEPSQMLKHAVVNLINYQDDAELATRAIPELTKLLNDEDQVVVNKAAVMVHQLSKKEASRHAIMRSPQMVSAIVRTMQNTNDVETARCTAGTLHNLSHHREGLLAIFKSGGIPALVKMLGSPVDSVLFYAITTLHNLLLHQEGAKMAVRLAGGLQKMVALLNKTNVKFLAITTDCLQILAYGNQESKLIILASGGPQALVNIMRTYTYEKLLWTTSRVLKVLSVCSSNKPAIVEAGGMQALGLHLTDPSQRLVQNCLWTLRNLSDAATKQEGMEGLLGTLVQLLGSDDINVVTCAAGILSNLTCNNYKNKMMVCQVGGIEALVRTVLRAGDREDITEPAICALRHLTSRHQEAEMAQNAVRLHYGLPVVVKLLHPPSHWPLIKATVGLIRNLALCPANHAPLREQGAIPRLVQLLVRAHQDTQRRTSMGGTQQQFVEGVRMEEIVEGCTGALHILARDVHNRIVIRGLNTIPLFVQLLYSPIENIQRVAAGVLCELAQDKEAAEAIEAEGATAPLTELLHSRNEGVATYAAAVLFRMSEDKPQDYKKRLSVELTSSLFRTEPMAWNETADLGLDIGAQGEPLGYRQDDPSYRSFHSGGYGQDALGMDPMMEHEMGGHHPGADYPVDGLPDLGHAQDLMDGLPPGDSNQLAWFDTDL

No constants are given. Whether binding was seen depends on the method and setting. For part of these data: Binding seen in cells or lysates may run through a third protein. Some results given as binding are weak or reduced against the parent protein; the word gives no strength. For part of these data: Where a sequence is shown, tags or fusion partners need not be part of it.

For assay [1], the target named is β-catenin (CTNNB1), endogenous in GBM tumorspheres (human (endogenous in patient-derived GBM tumorspheres)) (UniProt P35222). The assay is described as follows: co-IP; lysates of GBM tumorspheres treated with DFS for 72 h or untreated; anti-FOXM1 or anti-β-catenin antibody overnight at 4 °C, protein A/G beads, washed with PBST; immunoblot of the endogenous proteins.

The target in assay [2] is GST-tagged β-catenin (UniProt P35222). The assay is described as follows: pull-down; purified GST-β-catenin on glutathione agarose beads with Flag-FOXM1 lysate from TS15-88 and TS13-64, binding buffer, about 1 h at 4 °C; DFS 5 and 10 μM; anti-Flag immunoblot; only the target purified.
Assay [3] addresses recombinant human β-catenin protein (human) (UniProt P35222). Put plainly: SPR; recombinant human β-catenin and FOXM1 with DFS 12.5 to 50 μM; who was immobilised is not stated. (In general: Surface plasmon resonance follows binding to a sensor surface in real time, without labels.)

B1: Forkhead Box M1 (FOXM1), endogenous in GBM tumorspheres (protein, UniProt Q08050 1-763)
chain: MKTSPRRPLILKRRRLPLPVQNAPSETSEEEPKRSPAQQESNQAEASKEVAESNSCKFPAGIKIINHPTMPNTQVVAIPNNANIHSIITALTAKGKESGSSGPNKFILISCGGAPTQPPGLRPQTQTSYDAKRTEVTLETLGPKPAARDVNLPRPPGALCEQKRETCADGEAAGCTINNSLSNIQWLRKMSSDGLGSRSIKQEMEEKENCHLEQRQVKVEEPSRPSASWQNSVSERPPYSYMAMIQFAINSTERKRMTLKDIYTWIEDHFPYFKHIAKPGWKNSIRHNLSLHDMFVRETSANGKVSFWTIHPSANRYLTLDQVFKPLDPGSPQLPEHLESQQKRPNPELRRNMTIKTELPLGARRKMKPLLPRVSSYLVPIQFPVNQSLVLQPSVKVPLPLAASLMSSELARHSKRVRIAPKVLLAEEGIAPLSSAGPGKEEKLLFGEGFSPLLPVQTIKEEEIQPGEEMPHLARPIKVESPPLEEWPSPAPSFKEESSHSWEDSSQSPTPRPKKSYSGLRSPTRCVSEMLVIQHRERRERSRSRRKQHLLPPCVDEPELLFSEGPSTSRWAAELPFPADSSDPASQLSYSQEVGGPFKTPIKETLPISSTPSKSVLPRTPESWRLTPPAKVGGLDFSPVQTSQGASDPLPDPLGLMDLSTTPLQSAPPLESPQRLLSSEPLDLISVPFGNSSPSDIDVPKPGSPEPQVSGLAANRSLTEGLVLDTMNDSLSKILLDISFPGLDEDPLGPDNINWSQFIPELQ
Take B1: the binding entry in assay [1] is reported as “binds”.

B2: Flag-tagged FOXM1 (protein, UniProt Q08050 1-763)
chain: MKTSPRRPLILKRRRLPLPVQNAPSETSEEEPKRSPAQQESNQAEASKEVAESNSCKFPAGIKIINHPTMPNTQVVAIPNNANIHSIITALTAKGKESGSSGPNKFILISCGGAPTQPPGLRPQTQTSYDAKRTEVTLETLGPKPAARDVNLPRPPGALCEQKRETCADGEAAGCTINNSLSNIQWLRKMSSDGLGSRSIKQEMEEKENCHLEQRQVKVEEPSRPSASWQNSVSERPPYSYMAMIQFAINSTERKRMTLKDIYTWIEDHFPYFKHIAKPGWKNSIRHNLSLHDMFVRETSANGKVSFWTIHPSANRYLTLDQVFKPLDPGSPQLPEHLESQQKRPNPELRRNMTIKTELPLGARRKMKPLLPRVSSYLVPIQFPVNQSLVLQPSVKVPLPLAASLMSSELARHSKRVRIAPKVLLAEEGIAPLSSAGPGKEEKLLFGEGFSPLLPVQTIKEEEIQPGEEMPHLARPIKVESPPLEEWPSPAPSFKEESSHSWEDSSQSPTPRPKKSYSGLRSPTRCVSEMLVIQHRERRERSRSRRKQHLLPPCVDEPELLFSEGPSTSRWAAELPFPADSSDPASQLSYSQEVGGPFKTPIKETLPISSTPSKSVLPRTPESWRLTPPAKVGGLDFSPVQTSQGASDPLPDPLGLMDLSTTPLQSAPPLESPQRLLSSEPLDLISVPFGNSSPSDIDVPKPGSPEPQVSGLAANRSLTEGLVLDTMNDSLSKILLDISFPGLDEDPLGPDNINWSQFIPELQ
In the case of B2, in assay [2], the binding entry is recorded as “binds”.

B3: FOXM1 used in the SPR analysis (protein, UniProt Q08050 1-763)
chain: MKTSPRRPLILKRRRLPLPVQNAPSETSEEEPKRSPAQQESNQAEASKEVAESNSCKFPAGIKIINHPTMPNTQVVAIPNNANIHSIITALTAKGKESGSSGPNKFILISCGGAPTQPPGLRPQTQTSYDAKRTEVTLETLGPKPAARDVNLPRPPGALCEQKRETCADGEAAGCTINNSLSNIQWLRKMSSDGLGSRSIKQEMEEKENCHLEQRQVKVEEPSRPSASWQNSVSERPPYSYMAMIQFAINSTERKRMTLKDIYTWIEDHFPYFKHIAKPGWKNSIRHNLSLHDMFVRETSANGKVSFWTIHPSANRYLTLDQVFKPLDPGSPQLPEHLESQQKRPNPELRRNMTIKTELPLGARRKMKPLLPRVSSYLVPIQFPVNQSLVLQPSVKVPLPLAASLMSSELARHSKRVRIAPKVLLAEEGIAPLSSAGPGKEEKLLFGEGFSPLLPVQTIKEEEIQPGEEMPHLARPIKVESPPLEEWPSPAPSFKEESSHSWEDSSQSPTPRPKKSYSGLRSPTRCVSEMLVIQHRERRERSRSRRKQHLLPPCVDEPELLFSEGPSTSRWAAELPFPADSSDPASQLSYSQEVGGPFKTPIKETLPISSTPSKSVLPRTPESWRLTPPAKVGGLDFSPVQTSQGASDPLPDPLGLMDLSTTPLQSAPPLESPQRLLSSEPLDLISVPFGNSSPSDIDVPKPGSPEPQVSGLAANRSLTEGLVLDTMNDSLSKILLDISFPGLDEDPLGPDNINWSQFIPELQ
On to B3, for which the binding result in assay [3] is “binds”.
